Drawing on patent US20190224333A1 (published 2019), this text covers binding for seven molecules.

These are yes or no findings as the source states them, for the method shown. Some entries that bind do so weakly or less than the wild type.

Test [1] concerns the target T1, fibrin (human, UniProt P02671 36-629; P02675 45-491; P02679 27-437, limits assumed).
T1 construct: Thin polymerised fibrin layer made by layer-by-layer deposition of fibrinogen-thrombin-fibrinogen on ELISA plates, SPR chips and interferometry sensors; Human is stated for the purified fibrinogen used in biopanning; also called fibrin layer; fibrin clot
T1 sequence (looked up) 1: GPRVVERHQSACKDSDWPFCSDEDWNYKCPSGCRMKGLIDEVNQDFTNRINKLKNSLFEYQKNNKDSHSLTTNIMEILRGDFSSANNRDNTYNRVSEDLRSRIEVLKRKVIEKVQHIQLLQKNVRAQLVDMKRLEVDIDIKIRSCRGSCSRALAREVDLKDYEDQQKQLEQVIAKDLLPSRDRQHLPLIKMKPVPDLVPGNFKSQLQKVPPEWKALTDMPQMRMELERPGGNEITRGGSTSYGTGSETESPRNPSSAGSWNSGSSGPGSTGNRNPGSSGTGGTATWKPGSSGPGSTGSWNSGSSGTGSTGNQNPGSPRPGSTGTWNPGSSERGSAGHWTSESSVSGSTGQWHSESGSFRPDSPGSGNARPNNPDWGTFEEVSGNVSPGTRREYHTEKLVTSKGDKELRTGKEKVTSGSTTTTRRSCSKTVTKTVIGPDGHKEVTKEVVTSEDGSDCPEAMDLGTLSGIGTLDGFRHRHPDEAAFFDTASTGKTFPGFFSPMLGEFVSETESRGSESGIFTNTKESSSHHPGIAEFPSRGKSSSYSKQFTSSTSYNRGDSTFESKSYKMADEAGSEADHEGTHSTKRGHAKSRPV
T1 sequence (looked up) 2: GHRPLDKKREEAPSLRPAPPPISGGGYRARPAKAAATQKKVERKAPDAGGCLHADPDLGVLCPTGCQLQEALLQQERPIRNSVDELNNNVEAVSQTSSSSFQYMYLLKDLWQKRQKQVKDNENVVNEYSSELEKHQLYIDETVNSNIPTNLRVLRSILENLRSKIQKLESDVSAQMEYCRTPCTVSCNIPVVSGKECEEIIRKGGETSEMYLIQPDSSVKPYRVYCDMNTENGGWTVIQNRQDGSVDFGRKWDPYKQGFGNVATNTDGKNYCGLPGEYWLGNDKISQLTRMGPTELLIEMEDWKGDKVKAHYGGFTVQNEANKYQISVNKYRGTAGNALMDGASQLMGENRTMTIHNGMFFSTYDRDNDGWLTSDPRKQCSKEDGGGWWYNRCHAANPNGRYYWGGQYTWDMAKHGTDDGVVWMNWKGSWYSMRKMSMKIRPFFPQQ
T1 sequence (looked up) 3: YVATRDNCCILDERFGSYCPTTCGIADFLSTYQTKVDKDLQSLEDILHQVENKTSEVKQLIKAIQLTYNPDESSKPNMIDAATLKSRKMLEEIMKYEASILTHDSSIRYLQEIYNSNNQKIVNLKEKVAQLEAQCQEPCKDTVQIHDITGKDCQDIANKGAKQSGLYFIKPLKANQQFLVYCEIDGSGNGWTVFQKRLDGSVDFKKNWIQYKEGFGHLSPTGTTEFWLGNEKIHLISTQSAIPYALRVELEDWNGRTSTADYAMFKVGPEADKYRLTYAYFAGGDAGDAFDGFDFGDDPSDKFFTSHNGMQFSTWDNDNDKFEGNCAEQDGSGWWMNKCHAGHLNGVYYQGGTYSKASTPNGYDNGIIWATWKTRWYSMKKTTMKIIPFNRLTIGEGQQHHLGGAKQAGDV
The experiment in a line: interferometry (ForteBio Blitz), fibrin layer on sensor.

Test [2] addresses T1, fibrin. The experiment in a line: ELISA on fibrin-coated and fibrinogen-coated plates, clone screen.
Test [3] deals with T1, fibrin. Put plainly: ELISA on fibrin.

B1: H6-microgels (protein)
VH: QVQLLESGGGLVQPGGSLRLSCAASGDRFTHNDMGWVRQAPGKGLEWVSTIPTTDGSTYYADSVKGRFTISRDNSKSTLYLQMNSLRAEDTAVYYCATGYMWKAPAYVKYWGQGTLVTVSSAAAEQKLISEEDLNSAAHYTDIG
modifications: conjugated to ultralow crosslinked pNIPAm-AAc microgel by EDC/NHS chemistry
As for B1, the binding entry with fibrin [1] was “binds”.

B2: A6 (VHH)
VHH: QVQLLESGGGLVQPGGSLRLSCAASGVRITDDSMSWVRQAPGKGLEWVSSIEDNSGSTYYADSVKGRFTISRDNSKNTLYLQMNSLRAEDTAVYYCAGEGWDVLRRDQAVTSWGQGTLVTVSS
As for B2, the binding entry with fibrin [2] was “binds”.

B3: F5 (VHH)
VHH: QVQLLESGGGLVQPGGSLRLSCAASGDSVSYQYMGWVRQAPGKGLEWVSAIENRDGSTYYADSVKGRFTISRDNSKNTLYLQMNSLRAEDTAVYYCAGENLRSSAEELWYWGQGTLVTVSS
In the case of B3, in the test with fibrin [3], the binding entry was “binds”.

B4: A2a (scFv)
scFv: QVQLLESGGGLVQPGGSLRLSCAASGFTFSSYAMSWVRQAPGKGLEWVSSINYSGTNTNYADSVKGRFTISRDNSKNTLYLQMNSLRAEDTAVYYCAKASNSFDYWGQGTLVTVSSGGGGSGGGGSGGGGSTDIQMTQSPSSLSASVGDRVTITCRASQSISSYLNWYQQKPGKAPKLLIYTASSLQSGVPSRFSGSGSGTDFTLTISSLQPEDFATYYCQQSDTAPTTFGQGTKVEIKRAAA
B4: the binding entry in the test with fibrin [3] is “binds”.

B5: B3a (scFv)
scFv: QVQLLESGGGLVQPGGSLRLSCAASGFTFSSYAMSWVRQAPGKGLEWVSTISSGGSATGYADSVKGRFTISRDNSKNTLYLQMNSLRAEDTAVYYCAKTYDAFDYWGQGTLVTVSSGGGGSGGGGSGGGGSTDIQMTQSPSSLSASVGDRVTITCRASQSISSYLNWYQQKPGKAPKLLIYSASNLQSGVPSRFSGSGSGTDFTLTISSLQPEDFATYYCQQSDTAPTTFGQGTKVEIKRAAA
As to B5, the binding entry in the test with fibrin [3] is on record as “binds”.

B6: H6 (VHH)
VHH: QVQLLESGGGLVQPGGSLRLSCAASGDRFTHNDMGWVRQAPGKGLEWVSTIPTTDGSTYYADSVKGRFTISRDNSKSTLYLQMNSLRAEDTAVYYCATGYMWKAPAYVKYWGQGTLVTVSS
notes: Human-derived single domain variable fragment (sdFv, VH only) from a phagemid library; Made as soluble sdFv in E. coli HB2151 and purified on protein A; also called clone H6; fibrin-specific sdFv
For the molecule B6, the binding entry in the test with fibrin [2] is “binds”.

B7: A2 (VHH)
VHH: QVQLLESGGGLVQPGGSLRLSCAASGFSLNDKIMTWVRQAPGKGLEWVSSISGPNGSTYYADSVKGRFTISRDNSKNTLYLQMNSLRAEDTAVYYCAGCAAASSTMEYWGQGTLVTVSS
Take B7: the binding result with fibrin [2] is given as “binds”.
